Amino acid sequences for entries named in this document (tags omitted).
UniProt P53396: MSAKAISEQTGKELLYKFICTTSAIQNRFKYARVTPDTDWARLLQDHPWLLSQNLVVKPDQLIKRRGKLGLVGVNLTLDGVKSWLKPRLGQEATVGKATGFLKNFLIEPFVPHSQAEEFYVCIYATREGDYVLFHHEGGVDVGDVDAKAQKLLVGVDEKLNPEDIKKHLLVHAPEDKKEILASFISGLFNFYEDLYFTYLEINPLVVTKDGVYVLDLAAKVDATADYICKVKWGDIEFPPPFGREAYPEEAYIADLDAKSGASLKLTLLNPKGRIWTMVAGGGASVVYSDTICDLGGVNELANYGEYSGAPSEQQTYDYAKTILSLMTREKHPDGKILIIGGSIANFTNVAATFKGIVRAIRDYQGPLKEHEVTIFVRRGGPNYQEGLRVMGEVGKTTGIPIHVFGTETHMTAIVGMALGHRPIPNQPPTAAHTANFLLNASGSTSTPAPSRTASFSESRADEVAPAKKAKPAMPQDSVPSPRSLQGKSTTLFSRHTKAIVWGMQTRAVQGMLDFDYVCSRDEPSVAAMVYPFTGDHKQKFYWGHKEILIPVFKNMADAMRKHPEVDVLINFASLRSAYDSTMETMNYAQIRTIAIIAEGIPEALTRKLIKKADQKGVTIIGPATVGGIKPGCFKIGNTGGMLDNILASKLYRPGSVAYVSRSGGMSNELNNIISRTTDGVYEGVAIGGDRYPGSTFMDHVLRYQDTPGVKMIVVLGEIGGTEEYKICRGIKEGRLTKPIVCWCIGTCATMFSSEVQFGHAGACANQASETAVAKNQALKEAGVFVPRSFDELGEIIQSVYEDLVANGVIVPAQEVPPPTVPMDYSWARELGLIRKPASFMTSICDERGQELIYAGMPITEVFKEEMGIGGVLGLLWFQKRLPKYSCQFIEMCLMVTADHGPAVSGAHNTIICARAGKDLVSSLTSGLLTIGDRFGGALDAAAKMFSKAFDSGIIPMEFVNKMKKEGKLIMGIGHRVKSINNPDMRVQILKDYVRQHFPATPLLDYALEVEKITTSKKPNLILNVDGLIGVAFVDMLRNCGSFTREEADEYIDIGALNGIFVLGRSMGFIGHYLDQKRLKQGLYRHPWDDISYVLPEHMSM

In paper PMC12811253:

Target: T1, USP13, overexpressed in LM3 cells for IP-MS (UniProt Q92995)
T1 sequence: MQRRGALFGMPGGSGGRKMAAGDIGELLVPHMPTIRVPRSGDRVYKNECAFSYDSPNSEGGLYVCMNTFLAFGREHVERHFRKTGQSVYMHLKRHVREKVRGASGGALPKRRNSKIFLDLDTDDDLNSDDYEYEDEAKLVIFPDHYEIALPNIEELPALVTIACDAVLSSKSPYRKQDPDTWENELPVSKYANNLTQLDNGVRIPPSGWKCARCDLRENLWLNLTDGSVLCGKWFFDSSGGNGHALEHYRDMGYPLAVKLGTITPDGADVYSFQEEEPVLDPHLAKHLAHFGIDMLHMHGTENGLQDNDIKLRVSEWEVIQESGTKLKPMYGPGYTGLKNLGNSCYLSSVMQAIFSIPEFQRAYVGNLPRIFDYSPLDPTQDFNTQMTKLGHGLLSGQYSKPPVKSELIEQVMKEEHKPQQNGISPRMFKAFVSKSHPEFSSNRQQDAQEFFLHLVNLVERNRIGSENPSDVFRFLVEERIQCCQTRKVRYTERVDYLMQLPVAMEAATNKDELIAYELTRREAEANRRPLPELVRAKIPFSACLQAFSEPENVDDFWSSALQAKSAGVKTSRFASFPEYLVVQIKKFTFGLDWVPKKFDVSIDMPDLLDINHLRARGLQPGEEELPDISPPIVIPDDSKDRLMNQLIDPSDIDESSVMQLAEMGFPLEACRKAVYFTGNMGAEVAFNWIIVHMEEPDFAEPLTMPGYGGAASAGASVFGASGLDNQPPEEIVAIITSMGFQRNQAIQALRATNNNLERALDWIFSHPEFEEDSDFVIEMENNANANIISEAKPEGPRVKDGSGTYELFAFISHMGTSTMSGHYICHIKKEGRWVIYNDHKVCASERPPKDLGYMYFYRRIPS
Assay: affinity purification with mass spectrometry; IP-MS in LM3 cells after USP13 overexpression and immunoprecipitation of USP13

ATP citrate lyase (ACLY), endogenous (from UniProt P53396 1-1101) (enzyme)
binding: binds

These are yes or no findings as the source states them, for the method shown. Binding seen in cells or lysates may run through a third protein. Here binding means that the protein was enriched with, or labelled near, the bait; the list need not be complete.
